The record followed here is article PMC3092770.

Protein sequences, listed by entry. Tags and fused reporters are not part of them.
UniProt Q8TB72: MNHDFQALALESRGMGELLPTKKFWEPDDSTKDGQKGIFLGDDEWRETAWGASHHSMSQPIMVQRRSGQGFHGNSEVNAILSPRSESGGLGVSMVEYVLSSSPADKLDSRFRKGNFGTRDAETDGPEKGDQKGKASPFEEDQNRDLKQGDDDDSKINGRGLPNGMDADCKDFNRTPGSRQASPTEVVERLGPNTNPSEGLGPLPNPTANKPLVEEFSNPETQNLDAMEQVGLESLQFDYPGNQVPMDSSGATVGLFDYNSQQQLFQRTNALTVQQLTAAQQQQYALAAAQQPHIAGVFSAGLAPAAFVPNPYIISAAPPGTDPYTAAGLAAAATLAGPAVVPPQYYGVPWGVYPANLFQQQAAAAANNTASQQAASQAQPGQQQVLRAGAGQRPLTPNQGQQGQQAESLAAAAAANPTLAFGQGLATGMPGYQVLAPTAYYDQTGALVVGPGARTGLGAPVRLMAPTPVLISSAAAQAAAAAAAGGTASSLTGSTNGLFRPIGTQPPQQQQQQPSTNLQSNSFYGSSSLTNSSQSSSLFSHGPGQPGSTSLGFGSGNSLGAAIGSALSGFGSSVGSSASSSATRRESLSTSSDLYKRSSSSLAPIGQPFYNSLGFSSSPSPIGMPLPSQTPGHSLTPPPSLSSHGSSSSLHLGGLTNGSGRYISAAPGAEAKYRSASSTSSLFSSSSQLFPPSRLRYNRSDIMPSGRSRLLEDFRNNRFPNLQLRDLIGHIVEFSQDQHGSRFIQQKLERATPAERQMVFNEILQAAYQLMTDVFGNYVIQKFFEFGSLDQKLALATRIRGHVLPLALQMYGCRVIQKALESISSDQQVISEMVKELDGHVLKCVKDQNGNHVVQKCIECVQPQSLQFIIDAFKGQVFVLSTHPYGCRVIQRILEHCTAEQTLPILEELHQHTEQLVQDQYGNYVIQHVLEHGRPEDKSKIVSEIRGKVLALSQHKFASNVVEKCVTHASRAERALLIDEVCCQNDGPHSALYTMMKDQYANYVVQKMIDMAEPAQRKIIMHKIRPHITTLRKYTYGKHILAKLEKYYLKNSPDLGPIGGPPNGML

This assay has as its target endogenous PUM2 (human (endogenous in CL1–5)) (UniProt Q8TB72). Kind of assay: proximity ligation; in situ PLA (Duolink) in fixed CL1–5 cells with anti-PUM2 and anti-Aurora-A antibodies; single primary antibodies as negative controls.

These are yes or no findings as the source states them, for the method shown. In cells and extracts the contact can be indirect. Some entries that bind do so weakly or less than the wild type.

B1: endogenous Aurora-A (enzyme, UniProt O14965 1-403)
chain: MDRSKENCISGPVKATAPVGGPKRVLVTQQFPCQNPLPVNSGQAQRVLCPSNSSQRIPLQAQKLVSSHKPVQNQKQKQLQATSVPHPVSRPLNNTQKSKQPLPSAPENNPEEELASKQKNEESKKRQWALEDFEIGRPLGKGKFGNVYLAREKQSKFILALKVLFKAQLEKAGVEHQLRREVEIQSHLRHPNILRLYGYFHDATRVYLILEYAPLGTVYRELQKLSKFDEQRTATYITELANALSYCHSKRVIHRDIKPENLLLGSAGELKIADFGWSVHAPSSRRTTLCGTLDYLPPEMIEGRMHDEKVDLWSLGVLCYEFLVGKPPFEANTYQETYKRISRVEFTFPDFVTEGARDLISRLLKHNPSQRPMLREVLEHPWITANSSKPSNCQNKESASKQS
Regarding B1, the binding result is given as “binds”.
